We go through 26 molecules from US20160209428A1, “DIAGNOSTIC AND PREDICTIVE METABOLITE PATTERNS FOR DISORDERS AFFECTING THE BRAIN AND NERVOUS SYSTEM” (THE REGENTS OF THE UNIVERSITY OF CALIFORNIA, priority 2013, published 2016).

Series [1] is described as follows: PTSD metabolomics: LC-MS/MS of metabolites, PTSD subjects vs controls, PLSDA. The settings on record: ratio of metabolite amount, 18 PTSD vs 20 control. More on the design: species or system human.
Series [2] concerns Fragile X (Fmr1) knockout mouse. Briefly: Plasma metabolomics after weekly suramin or saline, Fragile X model. Type of series: in vivo. Particulars: KO-Suramin vs KO-Saline, Fmr1 knockout mice, PLSDA. The method, then: Samples were analyzed on an AB SCIEX QTRAP 5500 triple quadrupole mass spectrometer equipped with a Turbo V electrospray ionization (ESI) source, Shimadzu LC-20A UHPLC system, and a PAL CTC autosampler (AB ACIEX, Framingham, Mass., USA). […] Plasma was separated by centrifugation at 600 g×5 minutes at 20° C. within one hour of collection. Fresh lithium-heparin plasma was transferred to labeled tubes for storage at −80° C. for analysis. Typically 45 μl of plasma was thawed on ice and transferred to a 1.7 ml Eppendorf tube. Two and one-half (2.5) μl of a cocktail containing 35 commercial stable isotope internal standards, and 2.5 μl of 310 stable isotope internal standards that were custom-synthesized in E. coli and S. cerevisiae by metabolic labeling with ^13C-glucose and ^13C-bicarbonate, were added, mixed, and incubated for 10 min at room temperature to permit small molecules and vitamins in the internal standards to associate with plasma binding proteins. Macromolecules (protein, DNA, RNA, etc.) were precipitated by extraction with 4 volumes (200 μl) of cold (−20° C.), acetonitrile:methanol (50:50) (LCMS grade, Cat#LC015-2.5 and GC230-4, Burdick & Jackson, Honeywell), vortexed vigorously, and incubated on crushed ice for 10 min, then removed by centrifugation at 16,000 g×10 min at 4° C. The supernatants containing the extracted metabolites and internal standards in the resulting 40:40:20 solvent mix of acetonitrile:methanol:water were transferred to labeled cryotubes and stored at −80° C. for LC-MS/MS (liquid chromatography-tandem mass spectrometry) analysis.
LC-MS/MS analysis was performed by multiple reaction monitoring (MRM) under Analyst v1.6.1 (AB SCIEX, Framingham, Mass., USA) software control in both negative and positive mode with rapid polarity switching (50 ms). Nitrogen was used for curtain gas (set to 30), collision gas (set to high), ion source gas 1 and 2 (set to 35). The source temperature was 500° C. Spray voltage was set to −4500 V in negative mode and 5500 V in positive mode. The values for Q1 and Q3 mass-to-charge ratios (m/z), declustering potential (DP), entrance potential (EP), collision energy (CE), and collision cell exit potential (CXP) were determined and optimized for each MRM for each metabolite. Ten microliters of extract was injected by PAL CTC autosampler into a 250 mm×2 mm, 5 μm Luna NH2 aminopropyl HPLC column (Phenomenex, Torrance, Calif., USA) held at 25° C. for chromatographic separation. […] The flow rate was 300 μl/min. All the samples were kept at 4° C. during analysis. The chromatographic peaks were identified using MultiQuant (v3.0, AB SCIEX), confirmed by manual inspection, and the peak areas integrated. The median of the peak area of stable isotope internal standards was calculated and used for the normalization of metabolites concentration across the samples and batches. Prior to multivariate and univariate analysis, the data were log-transformed.
A rendering of mammalian intermediary metabolism was constructed in Cytoscape v 3.1.1 (see, e.g., [http://]www.cytoscape.org/). […] Nodes in the Cytoscape network represent metabolites within the pathways and have been colored according to the Z-score. The Z-score was computed as the arithmetic difference between the mean concentration of each metabolite in the KO-Sur treatment group and the KO-Sal control group, divided by the standard deviation in the controls. Node colors were arranged on a red-green color scale with green representing −2.00 Z-score, red representing +2.00 Z-score, and with a zero (0) Z-score represented as white.
Group means and standard error of the means (SEM) are reported. Behavioral data were analyzed by two-way ANOVA and one-way ANOVAs (GraphPad Prism 5.0d, GraphPad Software Inc., La Jolla, Calif., USA, or Stata/SE v12.1, StataCorp, College Station, Tex., USA). Pair-wise post hoc testing was performed by the method of Tukey or Newman-Keuls. Significance was set at p<0.05.

Where a SMILES comes first, the peptide text is derived from it.

Consider `N[C@@H](CO)C(=O)O` [L-Serine], for which the PTSD/Control in series [1] is 1.115.

As to `O=c1[nH]c(=O)c2[nH]cnc2[nH]1` [Xanthine], the “VIP Score, metabolites changed by antipurinergic therapy” value (shortened to “VIP Score, metabolites changed”) in series [2] is on record as 8.283. For the same molecule, the PTSD/Control in series [1] came to 0.8533.

Regarding `CC(C)CCC[C@@H](C)[C@H]1CC[C@H]2[C@@H]3C(=O)C=C4C[C@@H](O)CC[C@]4(C)[C@H]3CC[C@]12C` [7-ketocholesterol], the PTSD/Control in series [1] came out at 0.7981.

Consider `CC(=O)N[C@@H](CC(=O)O)C(=O)O` [N-Acetyl-L-aspartic acid], for which the PTSD/Control in series [1] was 1.314.

On to `N[C@@H](Cc1ccc(O)cc1)C(=O)O` [L-Tyrosine], for which, in series [1], the PTSD/Control was 0.9049.

Turning to `C[C@H](N)C(=O)O` [Alanine], in series [1], the PTSD/Control was found to be 0.9055.

With `CN[C@@H](CS)C(=O)O` [Methylcysteine], the PTSD/Control in series [1] was 0.9101.

As to `CCCCC/C=C\C/C=C\C/C=C\C/C=C\CCCC(=O)O` [Arachidonic Acid], the PTSD/Control in series [1] was 1.171.

For `O=C(O)C=Cc1c[nH]c2ccccc12` [Indoleacrylic acid], the PTSD/Control in series [1] is 0.9385.

For 3-Hydroxyhexadecanoylcarnitine, the PTSD/Control in series [1] is listed as 0.8834.

On to `CCCCCCCCCCCCC/C=C/[C@@H](O)[C@H](COP(=O)([O-])OCC[N+](C)(C)C)NC(=O)CCCCCCCCCCC` [SM(d18:1/12:0)], for which the PTSD/Control in series [1] worked out at 0.8917.

As for `Nc1nc2c(ncn2[C@@H]2O[C@H](COP(=O)(O)O)[C@@H](O)[C@H]2O)c(=O)[nH]1` [Guanosine monophosphate], the PTSD/Control in series [1] stood at 0.9072.

`O=C([NH2+][O-])c1cccnc1` [Nicotinamide N-oxide]: in series [2], the “VIP Score, metabolites changed” value was determined as 1.724. Moreover, in series [1], the PTSD/Control was found to be 1.395.

`CNCC(=O)O` [Sarcosine]: the PTSD/Control in series [1] is given as 0.9121.

On to `NC(=O)c1ncn([C@@H]2O[C@H](COP(=O)(O)O)[C@@H](O)[C@H]2O)c1N` [AICAR], for which, in series [2], the “VIP Score, metabolites changed” value came to 1.5150. In addition, in series [1], the PTSD/Control stood at 1.15.

As to `CC1=C(/C=C/C(C)=C/C=C/C(C)=C/CO)C(C)(C)CCC1` [Retinol], in series [1], the PTSD/Control is 0.8755.

Take `N[C@@H](Cc1c[nH]c2ccccc12)C(=O)O` [L-Tryptophan]: the PTSD/Control in series [1] was 0.9265.

In the case of `CCCCC/C=C\C/C=C\CCCCCCCC(=O)O` [Linoleic acid], the PTSD/Control in series [1] is 1.24.

Regarding `Nc1ncnc2c1ncn2[C@@H]1O[C@H](COP(=O)(O)O)[C@@H](O)[C@H]1O` [Adenosine monophosphate], the PTSD/Control in series [1] was determined as 0.8009.

For the molecule 2-Octenoylcarnitine, the PTSD/Control in series [1] came out at 1.448.

Turning to `Nc1c(O)cccc1C(=O)O` [3-Hydroxyanthranilic acid], in series [1], the PTSD/Control was 1.253.

`CCC(=O)O` [Propionic acid]: the “VIP Score, metabolites changed” value in series [2] is 1.6633.

Regarding `CC(=O)N[C@@H](CC(=O)O)C(=O)N[C@@H](CCC(=O)O)C(=O)O` [N-Acetylaspartylglutamic acid] (Ac-Asp-Glu-OH), the PTSD/Control in series [1] came to 1.166.

`C[C@H](CCC(=O)NCC(=O)O)[C@H]1CC[C@H]2[C@@H]3[C@H](O)C[C@@H]4C[C@H](O)CC[C@]4(C)[C@H]3C[C@H](O)[C@]12C` [Glycocholic acid]: the PTSD/Control in series [1] stood at 0.7173.

On to Dodecenoylcarnitine, for which, in series [2], the “VIP Score, metabolites changed” value is on record as 1.7435.

For `CCCCCCCC/C=C\CCCCCCCC(=O)O` [Oleic acid], the PTSD/Control in series [1] came out at 1.297.
